PubChem BioAssay AID504744 – Drosophila RNAi Screening Center – 2011

- Screen: 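Find genes whose loss alters insulin-driven dAkt phosphorylation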 (primary screen)
- System: Drosophila Kc167 cells
- Reagent: long dsRNA against Drosophila genes, 250 ng dsRNA per well of a 384-well plate
- Duration: 3 days of knock-down, then overnight serum-free starvation before stimulation
- Conditions: bovine insulin at 387 nM for 10 minutes after 12 h without serum
- Read-out: 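Per-well phospho-dAkt level from an in-cell fluorescent antibody stain, divided by a DNA-dye signal; log2 residuals turned into z-scores that take cell number into account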
- Call rule: 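Hit in the insulin screen when the two-replicate mean z-score is more extreme than plus or minus 2.5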
In all, the deposit lists about 23,000 reagents; this is an unselected part of those that have a named target and a result. Of all reagents, 98 (0.43%) were called active. 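Only hit calls are given; the phospho-dAkt signals, z-scores and hit direction were not deposited.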 Reagents against one gene are numbered here.

CG34115
- Call: inactive

CG11293 (retired record)
- Call: inactive

PheRS-m
- Call: inactive

Hdc
- Call: inactive

GABA-B-R1
- Call: inactive

CG13023 #1
- Call: inactive

CG13023 #2
- Call: inactive

CG12920
- Call: inactive

CG31106
- Call: inactive

DNAlig4
- Call: inactive

CG10418
- Call: inactive

CG34408 #1
- Call: inactive

CG34408 #2
- Call: inactive

CG7860
- Call: inactive

rhea
- Call: inactive

Eig71Ef
- Call: inactive

Flo1
- Call: inactive

Shaw #1
- Call: inactive

Shaw #2
- Call: inactive

Shaw #3
- Call: inactive

CG1418
- Call: inactive

B9d1
- Call: inactive

Acp98AB (retired record)
- Call: inactive

CG3288
- Call: inactive

et
- Call: inactive

DIP-alpha #1
- Call: inactive

DIP-alpha #2
- Call: inactive

CG10602
- Call: inactive

CG34149
- Call: inactive

CG7544
- Call: inactive

slow #1
- Call: inactive

slow #2
- Call: inactive

mRpL17
- Call: inactive

MESK2
- Call: inactive

Octbeta3R #1
- Call: inactive

Octbeta3R #2
- Call: inactive

Octbeta3R #3
- Call: inactive

Octbeta3R #4
- Call: inactive

Octbeta3R #5
- Call: inactive

CG34454
- Call: inactive

lin
- Call: inactive

CG11983
- Call: inactive

Sdhaf3
- Call: inactive

Art9
- Call: inactive

Or74a
- Call: inactive

CG31265
- Call: inactive

del
- Call: inactive

CG11018
- Call: inactive

Ebp
- Call: inactive

Rheb
- Call: active

Pglym78
- Call: inactive

CG17994
- Call: inactive

CG14435
- Call: inactive

CG2691
- Call: inactive

CG9304
- Call: inactive

CG31729 #1
- Call: inactive

CG31729 #2
- Call: inactive

No new results follow: entries from further up.
et
- Call: inactive

DIP-alpha #1
- Call: inactive

DIP-alpha #2
- Call: inactive

CG10602
- Call: inactive

CG34149
- Call: inactive

CG7544
- Call: inactive

slow #1
- Call: inactive

slow #2
- Call: inactive

mRpL17
- Call: inactive
